Measurements published in publication doi:10.1101/2023.01.13.523596.
No constants are given. Whether binding was seen depends on the method and setting. Binding seen in cells or lysates may run through a third protein. Some binding calls cover weakened binding; strength is not graded here.

By UniProt entry, the sequences of proteins in these tests, tags left out.
UniProt P30051: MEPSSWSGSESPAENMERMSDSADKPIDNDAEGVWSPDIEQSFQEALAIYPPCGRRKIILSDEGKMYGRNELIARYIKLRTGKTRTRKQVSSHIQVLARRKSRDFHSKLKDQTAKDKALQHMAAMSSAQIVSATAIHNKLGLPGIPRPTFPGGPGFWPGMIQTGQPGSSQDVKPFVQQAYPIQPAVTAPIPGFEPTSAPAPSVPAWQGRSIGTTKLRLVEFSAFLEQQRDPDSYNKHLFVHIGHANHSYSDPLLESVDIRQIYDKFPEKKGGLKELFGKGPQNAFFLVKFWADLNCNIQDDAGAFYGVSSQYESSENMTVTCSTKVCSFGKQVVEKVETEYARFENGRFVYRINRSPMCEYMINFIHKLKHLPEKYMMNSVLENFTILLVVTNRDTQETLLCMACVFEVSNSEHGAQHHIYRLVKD
UniProt P46938: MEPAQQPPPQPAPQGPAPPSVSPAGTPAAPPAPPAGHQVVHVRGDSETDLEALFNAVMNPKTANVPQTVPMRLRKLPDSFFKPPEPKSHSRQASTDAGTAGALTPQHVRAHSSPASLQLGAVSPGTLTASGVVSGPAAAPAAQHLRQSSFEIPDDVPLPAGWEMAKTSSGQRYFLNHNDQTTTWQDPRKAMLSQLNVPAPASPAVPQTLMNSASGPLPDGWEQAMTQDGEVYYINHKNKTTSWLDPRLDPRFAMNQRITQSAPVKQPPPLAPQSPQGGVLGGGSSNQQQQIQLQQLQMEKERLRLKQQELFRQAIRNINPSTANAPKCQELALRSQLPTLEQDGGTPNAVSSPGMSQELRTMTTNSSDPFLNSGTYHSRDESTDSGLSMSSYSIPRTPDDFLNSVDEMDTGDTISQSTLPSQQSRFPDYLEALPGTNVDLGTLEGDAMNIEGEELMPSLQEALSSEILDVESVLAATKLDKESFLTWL

Target: TEAD1 (mouse (endogenous in aorta and inferior vena cava)) (UniProt P30051)
Experiment: proximity ligation

“Yes-associated protein (YAP) (from UniProt P46938 1-488)” was tested, and the binding was “binds”.
